Patent US20110039845A1, “2-AMINOQUINAZOLINE DERIVATIVE” (KYOWA HAKKO KIRIN CO., LTD., priority 2008, published 2011)
Some entries share one result that the patent states for a list of compounds.

Amino acid sequences for entries named in this document (tags omitted). Residues count along the entry.
UniProt Q02763, 771-1124: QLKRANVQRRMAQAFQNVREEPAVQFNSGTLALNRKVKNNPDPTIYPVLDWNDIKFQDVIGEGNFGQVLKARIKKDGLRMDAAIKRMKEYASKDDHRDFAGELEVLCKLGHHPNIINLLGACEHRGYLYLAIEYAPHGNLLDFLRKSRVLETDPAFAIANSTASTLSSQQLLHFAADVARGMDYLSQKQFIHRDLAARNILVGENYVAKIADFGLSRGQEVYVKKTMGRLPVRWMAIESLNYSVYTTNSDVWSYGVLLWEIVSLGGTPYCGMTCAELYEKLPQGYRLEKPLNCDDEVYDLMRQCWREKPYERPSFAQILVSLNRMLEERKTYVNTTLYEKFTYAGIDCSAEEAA
UniProt P35968, 790-1356 limits assumed: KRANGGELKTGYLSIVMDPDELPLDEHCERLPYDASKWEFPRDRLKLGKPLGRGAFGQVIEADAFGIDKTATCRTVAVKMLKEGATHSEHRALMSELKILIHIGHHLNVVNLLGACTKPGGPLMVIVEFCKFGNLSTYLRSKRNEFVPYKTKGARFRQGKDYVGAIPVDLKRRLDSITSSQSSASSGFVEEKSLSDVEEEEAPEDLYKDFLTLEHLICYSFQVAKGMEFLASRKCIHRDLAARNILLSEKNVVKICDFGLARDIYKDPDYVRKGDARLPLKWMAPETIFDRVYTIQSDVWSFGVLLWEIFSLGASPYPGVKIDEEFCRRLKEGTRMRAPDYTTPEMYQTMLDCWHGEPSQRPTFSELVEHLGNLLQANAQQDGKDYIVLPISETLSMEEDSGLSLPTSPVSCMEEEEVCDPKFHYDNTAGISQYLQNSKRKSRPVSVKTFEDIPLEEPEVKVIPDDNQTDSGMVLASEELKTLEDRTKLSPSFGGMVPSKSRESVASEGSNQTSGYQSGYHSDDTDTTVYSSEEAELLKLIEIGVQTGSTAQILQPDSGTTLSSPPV

Tests used:
[1] = biological target: T1, human Tie-2 (Homo sapiens, UniProt Q02763); assay: Tie-2 enzyme inhibitory activity (DELFIA time-resolved fluorescence kinase assay); format: biochemical; conditions: functional domain of human Tie-2, 50 μmol/L ATP, 30° C. 40 minutes
T1 construct: Functional domain of human Tie-2 (771-1124 end amino acid); purchased Carna Biosicence Inc. 08-285

[2] = biological target: T2, human KDR (Homo sapiens, UniProt P35968); assay: KDR enzyme inhibitory activity (DELFIA time-resolved fluorescence kinase assay); format: biochemical; conditions: selectivity for Tie-2 kinase over KDR
T2 construct: functional domain of human KDR (amino acid 790-end); purchased Upstate Inc. 14-630

IC50 [1]	ratio of KDR IC50/Tie-2 IC50 [2]	SMILES
≤ 20 nM	≥ 20	Cc1ccc(C(=O)Nc2cc(C(F)(F)F)ccn2)cc1-c1cc2cnc(N)nc2c(-c2cc[n+]([O-])cc2)c1O [Compound 249, 2-Amino-7-hydroxy-6-[2-methyl-5-N-(4-trifluoromethylpyridin-2-yl)carbamoylphenyl]-8-(pyridine-1-oxid-4-yl)quinazoline]
≤ 20 nM	≥ 20	Cc1ccc(C(=O)Nc2cc(C(F)(F)F)ncn2)cc1-c1cc2cnc(N)nc2c(-c2ccnc(F)c2)c1O [Compound 250, 2-Amino-8-(2-fluoropyridin-4-yl)-7-hydroxy-6-[2-methyl-5-N-(4-trifluoromethylpyrimidin-6-yl)carbamoylphenyl]quinazoline]
≤ 20 nM	≥ 20	Cc1ccc(C(=O)Nc2cc(C(F)(F)F)ncn2)cc1-c1cc2cnc(N)nc2c(-c2cncnc2)c1O [Compound 251, 2-Amino-7-hydroxy-6-[2-methyl-5-N-(4-trifluoromethylpyrimidin-6-yl)carbamoylphenyl]-8-(pyrimidin-5-yl)quinazoline]
≤ 20 nM	≥ 20	Cc1ccc(C(=O)Nc2cc(C(F)(F)F)ncn2)cc1-c1cc2cnc(N)nc2c(-c2cccc(C#N)c2)c1O [Compound 252, 2-Amino-8-(3-cyanophenyl)-7-hydroxy-6-[2-methyl-5-N-(4-trifluoromethylpyrimidin-6-yl)carbamoylphenyl]quinazoline]
≤ 20 nM	≥ 20	Cc1ccc(C(=O)Nc2cc(C(F)(F)F)ncn2)cc1-c1cc2cnc(N)nc2c(-c2ccc(F)nc2)c1O [Compound 253, 2-Amino-8-(2-fluoropyridin-5-yl)-7-hydroxy-6-[2-methyl-5-N-(4-trifluoromethylpyrimidin-6-yl)carbamoylphenyl]quinazoline]
≤ 20 nM	≥ 20	CCOc1ccc(-c2c(O)c(-c3cc(C(=O)Nc4cc(C(F)(F)F)ccn4)ccc3C)cc3cnc(N)nc23)cn1 [Compound 254, 2-Amino-8-(2-ethoxypyridin-5-yl)-7-hydroxy-6-[2-methyl-5-N-(4-trifluoromethylpyridin-2-0)carbamoylphenyl]quinazoline]
≤ 20 nM	≥ 20	CCOc1cc(-c2c(O)c(-c3cc(C(=O)Nc4cc(C(F)(F)F)ccn4)ccc3C)cc3cnc(N)nc23)ccn1 [Compound 255, 2-Amino-8-(2-ethoxypyridin-4-yl)-7-hydroxy-6-[2-methyl-5-N-(4-trifluoromethylpyridin-2-yl)carbamoylphenyl]quinazoline]
≤ 20 nM	≥ 20	Cc1ccc(C(=O)Nc2cc(C(F)(F)F)ccn2)cc1-c1cc2cnc(N)nc2c(-c2cccnc2)c1O [Compound 256, 2-Amino-7-hydroxy-6-[2-methyl-5-N-(4-trifluoromethylpyridin-2-yl)carbamoylphenyl]-8-(pyridin-3-yl)quinazoline]

The remaining lines, values behind:

SMILES	IC50 [1]	ratio of KDR IC50/Tie-2 IC50 [2]
Cc1ccc(C(=O)Nc2cc(C(F)(F)F)ccn2)cc1-c1cc2cnc(NC(=O)C3CC3)nc2c(-c2ccc(F)nc2)c1O [Compound 233, 2-Cyclopropylcarbonylamino-8-(2-fluoropyridin-5-yl)-7-hydroxy-6-[2-methyl-5-N-(4-trifluoromethylpyridin-2-yl)carbamoylphenyl]quinazoline]	≤ 20 nM	≥ 20
COC(=O)Nc1ncc2cc(-c3cc(C(=O)Nc4cccc(C(F)(F)F)c4)ccc3C)c(O)c(-c3ccc(Cl)cc3)c2n1 [Compound 235]	≤ 20 nM	≥ 20
Cc1ccc(C(=O)Nc2cc(C(F)(F)F)ccn2)cc1-c1cc2cnc(NC(C)C)nc2c(-c2ccnc(F)c2)c1O [Compound 239, 8-(2-Fluoropyridin-4-yl)-7-hydroxy-2-isopropylamino-6-[2-methyl-5-N-(4-trifluoromethylpyridin-2-yl)carbamoylphenyl]quinazoline]	≤ 20 nM	≥ 20
Cc1ccc(C(=O)Nc2cc(C(F)(F)F)ccn2)cc1-c1cc2cnc(NC(=O)C3CC3)nc2c(-c2ccnc(F)c2)c1O [Compound 240, 2-Cyclopropylcarbonylamino-8-(2-fluoropyridin-4-yl)-7-hydroxy-6-[2-methyl-5-N-(4-trifluoromethylpyridin-2-yl)carbamoylphenyl]quinazoline]	≤ 20 nM	≥ 20
Cc1ccc(C(=O)Nc2nccc(C(F)(F)F)n2)cc1-c1cc2cnc(NC(C)C)nc2c(-c2ccc(F)nc2)c1O [Compound 241, 8-(2-Fluoropyridin-5-yl)-7-hydroxy-2-isopropylamino-6-[2-methyl-5-N-(4-trifluoromethylpyrimidin-2-yl)carbamoylphenyl]quinazoline]	≤ 20 nM	≥ 20
Cc1ccc(C(=O)Nc2cc(C(F)(F)F)ccn2)cc1-c1cc2cnc(N)nc2c(-c2cccc(C#N)c2)c1O [Compound 242, 2-Amino-8-(3-cyanophenyl)-7-hydroxy-6-[2-methyl-5-N-(4-trifluoromethylpyridin-2-yl)carbamoylphenyl]quinazoline]	≤ 20 nM	≥ 20
Cc1cc(-c2c(O)c(-c3cc(C(=O)Nc4cc(C(F)(F)F)ccn4)ccc3C)cc3cnc(N)nc23)ccn1 [Compound 243, 2-Amino-7-hydroxy-8-(2-methylpyridin-4-yl)-6-[2-methyl-5-N-(4-trifluoromethylpyridin-2-yl)carbamoylphenyl]quinazoline]	≤ 20 nM	≥ 20
Cc1ccc(C(=O)Nc2cc(C(F)(F)F)ccn2)cc1-c1cc2cnc(N)nc2c(-c2ccccc2)c1O [Compound 244, 2-Amino-7-hydroxy-6-[2-methyl-5-N-(4-trifluoromethylpyridin-2-yl)carbamoylphenyl]-8-phenylquinazoline]	≤ 20 nM	≥ 20
Cc1ccc(C(=O)Nc2cc(C(F)(F)F)ccn2)cc1-c1cc2cnc(NC(C)C)nc2c(-c2cccc(C#N)c2)c1O [Compound 245, 8-(3-Cyanophenyl)-7-hydroxy-2-isopropylamino-6-[2-methyl-5-N-(4-trifluoromethylpyridin-2-yl)carbamoylphenyl]quinazoline]	≤ 20 nM	≥ 20
Cc1ccc(C(=O)Nc2cc(C(F)(F)F)ccn2)cc1-c1cc2cnc(N)nc2c(-c2ccncc2)c1O [Compound 246, 2-Amino-7-hydroxy-6-[2-methyl-5-N-(4-trifluoromethylpyridin-2-yl)carbamoylphenyl]-8-(pyridin-4-yl)quinazoline]	≤ 20 nM	≥ 20
Cc1ccc(C(=O)Nc2cc(C(F)(F)F)ccn2)cc1-c1cc2cnc(NC(C)C)nc2c(-c2cc[n+]([O-])cc2)c1O [Compound 247, 7-Hydroxy-2-isopropylamino-6-[2-methyl-5-N-(4-trifluoromethylpyridin-2-yl)carbamoylphenyl]-8-(pyridine-1-oxid-4-yl)quinazoline]	≤ 20 nM	≥ 20
Cc1ccc(C(=O)Nc2cc(C(F)(F)F)ccn2)cc1-c1cc2cnc(NC(=O)C3CC3)nc2c(-c2cccc(C#N)c2)c1O [Compound 248, 8-(3-Cyanophenyl)-2-cyclopropylcarbonylamino-7-hydroxy-6-[2-methyl-5-N-(4-trifluoromethylpyridin-2-yl)carbamoylphenyl]quinazoline]	≤ 20 nM	≥ 20
